According to PubChem BioAssay AID1347426 (Functional Genomics Laboratory (NCATS/FGL), 2020):
Among all 31,000 sequences or so, about 1,400 (4.5%) were called active.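 How the source made its calls: active means median seed-adjusted z-score above 1 or below -1; inactive means the rest.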 Some of the results follow.

Assay: Novel Modifiers of Survival Motor Neuron (SMN) Protein: Gene Identification via Genome-wide siRNA Screen;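 further: luminescence tracks full-length SMN protein made from the SMN2 reporter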
Conditions: HEK293T SMN2-luciferase reporter, siRNA knockdown, 72 h; actives lie on both sides
Method in brief: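 HEK293T cells stably carrying an SMN2 promoter/splicing cassette–luciferase reporter were reverse-transfected with 1 pmol siRNA per well (druggable-genome library, 3 siRNAs per gene) and grown 72 h at 37 °C. Luminescence, normalized to negative-control siRNA and log10-transformed, was scored as MAD.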

| Sequence | median seed-adjusted z-score |
| --- | --- |
| UGCCAAGUGUCCCUAAAGATT against CITED1 | inactive: 0 |
| CCACUGACACUGAAGAGCATT against DCLK3 | inactive: -0.0139 |
| GUCACGUCUUGAUACCUCUTT against ACAD8 | active: 1.06 |
| CCCAGAACACGAAAACUUUTT against HIF3A | inactive: -0.0855 |
| AGGCAAUAAAGACCAGUCATT against NSUN5C | inactive: -0.153 |
| CAGUAUACCGUGUUCGUGATT against PCDHA5 | inactive: 0.671 |
| GUACAUGUUUGAUCAUUAUTT against PPP1R3D | inactive: 0 |
| CAGUUUAUCCUACACGGUUTT against SLC2A12 | inactive: -0.373 |
| CAAACGAGGUGAACGAUGATT against PYGO1 | active: -1.23 |
| GAAAGAUACAGGACUAUCATT against RAB3C | inactive: 0.043 |
| CCUACAAUGCGCUUACUAATT against RAB4A | inactive: 0.0022 |
| CGGAUCUGGUGGAACGAGATT against OGFR | inactive: -0.565 |
| CCAGACCUCAUGUCACAGATT against ZNF777 | inactive: 0.128 |
| GGACUGGAGCUGAGUGCAATT against PTN | inactive: -0.174 |
| GGUUUAUGCGGAGUGAUCATT against SP4 | inactive: -0.088 |
| AGAUAUGAAUGGAACGUCUTT against RBMY1F | inactive: 0.2 |
| CGACGAUAGCUGCGGAUUUTT against NARF | inactive: -0.346 |
| CAAUGAUUCACGUCCAAAATT against FABP9 | inactive: 0.527 |
| GCAAGGAAACUCGAAUAAATT against AGRP | inactive: 0.206 |
| ACAGCCCACUGGUCCUCAATT against MYC | inactive: -0.543 |
| GCUCAUGUUUGACAAUGCATT against SKIV2L | inactive: 0.209 |
| CCGACACCUUACUACCAGATT against DNAJC16 | inactive: 0 |

| Sequence | median seed-adjusted z-score |
| --- | --- |
| GCAGAUCGGAGUCAAGUCATT against AP2A1 | inactive: 0.559 |
| CAAGCCCUCUGAAACAGUUTT against ADRA1A | active: -1.06 |
| ACAUGUUCCUCACCUUAAATT against SLC6A1 | inactive: -0.122 |
| GGAUUCGGUUUAUGCUAGATT against NOM1 | inactive: 0.00828 |
| CCGGUGACUUCCACAAGAATT against TNFRSF25 | inactive: -0.534 |
| GCGGGACAGAAGUUAGAUATT against HCCS | inactive: 0.00254 |
| GCAUCCUGUCGGCUCACAATT against PYCR2 | inactive: 0.00371 |
| GAUUCUUCCCGGCAUCAUATT against GUCY1A3 | inactive: 0.187 |
| GCACGUCUUUCCCAGCAUATT against SLC26A9 | inactive: 0.223 |
| GCUAUUUGGUUAUCCUUAUTT against ATP6V0A1 | inactive: 0.103 |
| GAAUCAAGAAUGAUACCGATT against GRK4 | inactive: -0.267 |
| GCUGCUGAAAGAUAUGAAATT against SPCS3 | inactive: 0.417 |
| GGAUGGGAGCAAAUACUGATT against PRDM16 | inactive: 0.185 |
| CUGCGGACGGAAUCCUAUATT against TYMP | inactive: -0.249 |
| CUGUCCACCCGGAAUGAAATT against COL9A2 | inactive: 0.0208 |
| CUACGAAUCUACUAACUGUTT against ZNF597 | inactive: 0.366 |
| ACAUCGAGGAGCUCAUGAATT against TNNC1 | inactive: 0.442 |
| GGAAAAUCUGCAACAGUUATT against STX12 | inactive: -0.797 |
| GCUCAGGCCUUAUUAGACATT against ZFP3 | inactive: 0 |
| GCAGUACAAAGGGAUCAUUTT against SLC25A4 | inactive: -0.379 |
| GCCUUGCUGAAGUCGCUCATT against CDIPT | inactive: 0.303 |
| GCUCAAUUCUGCAAAGAGATT against GART | inactive: -0.414 |

| Sequence | median seed-adjusted z-score |
| --- | --- |
| GAAGGAUCCUGAGCACGUATT against NR2E3 | inactive: -0.184 |
| GGGUUGGAAAGGAUUCUCATT against GSN | inactive: -0.222 |
| CGGUCUCACCUGCACCAAATT against SSPO | inactive: 0.397 |
| UGACGGAGAUGUUUCCGGATT against TOMM22 | inactive: 0.486 |
| UCAGCAAUUUGAAUGAGAATT against PPP1R1B | inactive: -0.354 |
| GCCUAGCACUAGCACAAGUTT against RBM5 | inactive: -0.289 |
| CGAGGUUUCGCUCACCAAATT against USP35 | inactive: -0.219 |
| CAAACCAUCGUAUCACUGATT against PPP2R5B | inactive: 0.237 |
| GCUGUGACAUGGACCAGUUTT against LRP1 | inactive: -0.781 |
| CCUUGUGAUUUUUACCAUUTT against F2RL2 | inactive: -0.216 |
| GAAGGAAUCUUGACGGAAATT against CRADD | inactive: -0.255 |
| CGUCCAUAGUUGAUCUAAUTT against SOCS6 | inactive: 0.359 |
| GACCCAUGGUAAAAUGCAATT against TWIST1 | inactive: -0.159 |
| GGUUAUUGGUCAGUUAUGATT against GLRB | inactive: 0.0713 |
| UGAUGAUAUUGCCACAUACTT against SSX1 | inactive: 0.0114 |
| GGAACCAGAUCAUAAGGGATT against MAP2K1 | inactive: 0.942 |
| CGUUACCAGCAUCACUCUATT against FOXF2 | inactive: -0.608 |
| UCAUAACAGGGAUCAUGAATT against GSTK1 | inactive: 0.234 |
| GGAUUACAUGAGUAAGCAATT against HPGD | inactive: -0.145 |
| GCAGUGGACAUAGAAGAGATT against 4-Sep | inactive: -0.0124 |
| CAUGCGGUCUUAGAAAUGATT against HNRPUL1 | inactive: -0.047 |
| CCACGUCCAUCAUCCAGCATT against NFIX | inactive: 0.481 |

| Sequence | median seed-adjusted z-score |
| --- | --- |
| GCUGUAACCUGUUCCUAUUTT against CALML3 | inactive: 0 |
| GCCUUUACCUGUUCCGAGUTT against PTPRG | inactive: 0.0697 |
| GGAUCCUUAUGUGCACAAATT against ACE2 | inactive: -0.164 |
| GCAUUGGGAUUGAAGUCCATT against ARHGAP18 | inactive: 0 |
| GCUCCUUGAUAUUUUAGAATT against HUNK | inactive: -0.183 |
| CAUGGGACCUGAUUCAAGATT against FCER2 | active: -1.75 |
| GCAUUGAUGACUUAGAAGATT against TPM1 | inactive: 0.659 |
| GCAAUAACAGCGUACCUAATT against CRIM1 | inactive: -0.155 |
| GGUCAUCAUUUGAUAUAUATT against TFB2M | inactive: 0.206 |
| GCAUCGACAUGUCCUGGGATT against PUF60 | active: 2.26 |
| GCAGAGCUACCUAAAGGGATT against CGREF1 | inactive: 0.0743 |
| CUCCUGCCUUGAGCCCUUATT against GFRA4 | active: -1.59 |
| CGGACGUGAUUGAGAUGAATT against ABR | inactive: 0.314 |
| GAAUUUAGUCCAUACGAAATT against PLA2G4A | inactive: 0.608 |
| GGUUAAUAUUGCGAAAGUATT against TXNDC1 | inactive: 0.458 |
| CAUGAUCAAUGCUGACUUUTT against RHBG | inactive: -0.126 |
| GGAACUGAAUUCAUGGACATT against XRN2 | inactive: -0.312 |
| GGAACAUCCUCCAUCAGAATT against MLYCD | inactive: -0.154 |
| GGCAAGUAAUUAAACUGCATT against STAP1 | inactive: 0 |
| CAUCUUGAAGUCUUAUUAATT against MYOCD | inactive: -0.121 |
| CUACUGAUGUUGUUGAUAATT against MAPK6 | inactive: -0.156 |
| GCAAUUCUGACGACAAUAUTT against KCTD10 | inactive: -0.506 |

An excerpt of these results, with tabs.
Sequence	median seed-adjusted z-score
CAAUGAUUCACGUCCAAAATT against FABP9	inactive: 0.527
GCAAGGAAACUCGAAUAAATT against AGRP	inactive: 0.206
ACAGCCCACUGGUCCUCAATT against MYC	inactive: -0.543
GCUCAUGUUUGACAAUGCATT against SKIV2L	inactive: 0.209
CCGACACCUUACUACCAGATT against DNAJC16	inactive: 0
GCAGAUCGGAGUCAAGUCATT against AP2A1	inactive: 0.559
CAAGCCCUCUGAAACAGUUTT against ADRA1A	active: -1.06

Carrying on:

| Sequence | median seed-adjusted z-score |
| --- | --- |
| UGGUUGCACCAGAUAAAGATT against DYNLRB1 | inactive: -0.58 |
| AGCAGAAGAAGUUCAAAUATT against P2RX1 | inactive: 0.908 |
| CCACGCGUCCUACUACAAATT against PSMD13 | inactive: 0.58 |
| AGCUUUCAGUUGUCUCAGUTT against ZNF124 | inactive: -0.487 |
| CCUUCUACAACACCAAGAATT against AGPAT2 | inactive: 0.38 |
| UUACUAUGGUUAUUUCAUATT against BDNF | inactive: 0 |
| CAGACCAUGGACAACCAUATT against GSTM1 | inactive: -0.55 |
| GCUCAUACCUGGUACCUAUTT against FOXM1 | inactive: -0.399 |
| CAAGAUGGUUGGUCACCAATT against CFHR4 | inactive: -0.0972 |
| CUCUCCUCACGUGCAGUAATT against PRSS1 | inactive: -0.0208 |
| GAAGGAUGCUUUCGAUAAATT against PDCD6IP | inactive: 0 |
| ACUCCUACAUGUACAUUCUTT against KCNE3 | active: -1.33 |
| GGCUCAAUAUGGAGGAUUATT against NPR3 | inactive: -0.436 |
| GCACCCACGUCAUCCCUAATT against GRIN1 | inactive: -0.137 |
| CCUUCGACAUUGCUGAGGATT against MBD3 | inactive: 0.708 |
| CAAUCAUCUCAGUGGCGAATT against TIGD5 | inactive: 0 |
| GCCUAUUUCUUACCAACUUTT against PECAM1 | inactive: 0.0717 |
| GAGUGCACACUUAAGGAGATT against TCF7 | inactive: -0.338 |
| GGGACAACAUCUUCCGAAATT against RRAGB | inactive: 0 |
| GUGUGAGGCUUUUACUUCUTT against LRTM1 | inactive: 0.492 |

Laid out differently: results already given
Sequence	median seed-adjusted z-score
GAAGGAUGCUUUCGAUAAATT against PDCD6IP	inactive: 0
ACUCCUACAUGUACAUUCUTT against KCNE3	active: -1.33
